# Experiments:
# [1] = Corneal permeation, side-bi-side diffusion apparatus; assay type: in vitro ADME, New Zealand albino rabbits; conditions: 0.5 μCi/mL, 3h experiment
# [2] = Permeation across sclera/choroid/RPE, Valia-Chein side-bi-side cells; conditions: 0.5 μCi/mL
smiles,measurement,setting,value
CN1C(=O)CN=C(c2ccccc2)c2cc(Cl)ccc21 [[^3H]diazepam],Mean percent cumulative amount transported per hour across the cornea,[1],1.62±0.04 percent per hour
same,Mean percent cumulative amount transported per hour across the sclera/choroid/RPE,[2],0.08±0.02 percent per hour

# — publication PMC2664388 (Pharmaceutical research, 2008)
